Results are given in words; binding and its absence hold for the method and conditions named. In cells and extracts the contact can be indirect. Binding can be weak; no strength is given.

For this test, the target named is His6-tagged Nup58, C-terminal segment of the ordered region (cognate for Nup54) (Rattus norvegicus). Briefly: pull-down; deletion constructs of the three channel nups co-expressed; complexes purified by affinity pulldown via the His6 tag of Nup58; eluates analysed by SDS-PAGE.

B1: Nup54(346–510), entire ordered region of Nup54 from Rattus norvegicus (domain or fragment, UniProt P70582 346-510)
chain: MTKQHQTRLDIISEDISELQKNQTTTMAKIAQYKRKLMDLSHRTLQVLIKQEIQRKSGYAIQAEEEQLRVQLDTIQGELNAPTQFKGRLNELMSQIRMQNHFGAVKSEEKYYIDADLLREIKQHLKQQQEGLSHLISIIKDDLEDIKLVEHGLNETIHSRGGVFS
For B1, the binding result is “binds”.
